From the supplement of paper PMC12823440, “Inhibitors supercharge kinase turnover through native proteolytic circuits” (Nature, 2025)
Counter-ions that a name gives are not always drawn. Some of the results follow. Hit calls seldom repeat between salt and free forms of one compound.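 In K562 cells expressing nanoluciferase-fused kinases, luminescence was recorded at 4 h intervals between 2 and 18 h, normalized as percent of control with DMSO at 100% and a positive control at 0%. A significant (2 sigma) signal drop marks a time point as decreased. The authors' rule for a hit is not shown and takes in more than the number of time points.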

By UniProt entry, the sequences of proteins in these tests, tags left out.
UniProt P36888, whole entry: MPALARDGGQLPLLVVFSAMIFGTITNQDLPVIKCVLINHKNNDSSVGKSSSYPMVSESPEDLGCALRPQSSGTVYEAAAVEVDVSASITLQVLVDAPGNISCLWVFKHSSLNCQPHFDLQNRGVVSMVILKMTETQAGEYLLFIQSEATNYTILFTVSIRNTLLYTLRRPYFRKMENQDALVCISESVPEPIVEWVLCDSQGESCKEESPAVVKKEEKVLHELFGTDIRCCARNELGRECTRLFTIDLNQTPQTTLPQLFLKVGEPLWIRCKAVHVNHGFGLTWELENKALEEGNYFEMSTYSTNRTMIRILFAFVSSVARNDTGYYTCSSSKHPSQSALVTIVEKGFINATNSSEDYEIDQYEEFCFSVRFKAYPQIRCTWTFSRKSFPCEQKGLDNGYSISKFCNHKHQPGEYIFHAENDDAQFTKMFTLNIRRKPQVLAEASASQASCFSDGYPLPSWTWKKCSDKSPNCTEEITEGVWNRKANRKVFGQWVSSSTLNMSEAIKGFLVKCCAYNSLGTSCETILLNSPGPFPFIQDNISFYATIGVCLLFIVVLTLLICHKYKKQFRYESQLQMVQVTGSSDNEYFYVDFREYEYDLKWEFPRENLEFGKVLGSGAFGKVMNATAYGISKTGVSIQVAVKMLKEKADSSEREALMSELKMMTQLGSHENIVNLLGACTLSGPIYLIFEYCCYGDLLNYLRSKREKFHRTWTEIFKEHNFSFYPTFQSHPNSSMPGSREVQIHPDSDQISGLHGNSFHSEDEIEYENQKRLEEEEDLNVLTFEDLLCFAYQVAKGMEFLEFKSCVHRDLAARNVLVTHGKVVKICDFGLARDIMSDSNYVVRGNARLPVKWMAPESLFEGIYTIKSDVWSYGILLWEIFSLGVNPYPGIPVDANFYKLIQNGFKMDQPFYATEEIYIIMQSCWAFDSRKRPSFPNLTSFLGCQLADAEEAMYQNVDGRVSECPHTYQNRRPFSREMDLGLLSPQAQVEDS

molecular target: FLT3 (UniProt P36888); experiment: number of time points (of 5) at which kinase-Nluc abundance scored as decreased, DMSO-normalised (count); higher = more persistent destabilization; conditions: K562; 2-18 h

Row | SMILES | number of time points
1 | CCc1cc(O)c(F)cc1-c1ccc2c(-c3nc4c([nH]3)CN(C3CCN(C)CC3)CC4)n[nH]c2c1 [JAK-IN-5 (hydrochloride)] (2 µM) | 0
2 | Cc1ccc(Nc2cc(-c3cccc(N4C(=O)c5ccccc5C4=O)c3)ncn2)cc1NS(C)(=O)=O (10 µM) | 0
3 | C=C1C(=O)O[C@@H]2C[C@@]3(C)CCC[C@H](C)C3=C[C@H]12 [Alantolactone] (10 µM) | 0
4 | C=C(C)C(=O)Nc1cccc(-c2ncnc3[nH]cc(C(=O)OCC)c23)c1 (10 µM) | 0
5 | CNc1nc(Nc2cnn(C3CCN(C4COC4)CC3F)c2Cl)ncc1C(F)(F)F (stereo unspecified) (10 µM) | 0
6 | Cc1cc(Nc2cc(Cl)nc(Oc3ccc([N+](=O)[O-])cc3)n2)n[nH]1 [Autophinib] (2.5 µM) | 0
7 | CC(C)=CC[C@H](O)C1=CC(=O)c2c(O)ccc(O)c2C1=O [(-)-Alkannin] (2.5 µM) | 0
8 | CNCc1ccccc1-c1csc([C@@H](C)Nc2nc(C)nc3cc(OC)c(OC)cc23)c1 (2.5 µM) | 0
9 | COc1ncc(-c2nc(N3CCOCC3)nc3c(CN4CCC(C(C)(C)O)CC4)cc(F)cc23)cc1NS(C)(=O)=O [Linperlisib] (10 µM) | 0
10 | O=C(Nc1ccc(F)cc1F)[C@H](NC(=S)Nc1cc(C(F)(F)F)cc(C(F)(F)F)c1)c1ccccc1 (2.5 µM) | 0
11 | O=C1NC(=O)C(=Cc2ccc(-c3ccc(F)cc3)o2)S1 (stereo in doubt) (10 µM) | 0
12 | CCOc1cc(C(=O)N2CCC(N3CCN(C)CC3)CC2)ccc1Nc1ncc2c(n1)N(C1CCCC1)c1ccccc1C(=O)N2C (10 µM) | 0
13 | OC(COc1ccc(C(F)(F)F)cc1)CN(Cc1ccccc1)Cc1ccccc1 (stereo unspecified) (2.5 µM) | 0
14 | C[C@@H]1C(=O)O[C@H](C)[C@H]1C[C@@H](O)[C@](C)(O)[C@H]1CC[C@@]2(O)C3=CC(=O)[C@@H]4C[C@@H](O)[C@@H](O)C[C@]4(C)[C@H]3CC[C@]12C [Cyasterone] (10 µM) | 0
15 | Cc1c(CN2CCN(C(=O)[C@H](C)O)CC2)sc2c(N3CCOCC3)nc(-c3cnc(N)nc3)nc12 [Apitolisib] (10 µM) | 0
16 | CC(C)(C)NC(=O)c1cncn1C1CCN(c2ccc(-c3nnc(C(F)(F)F)o3)cn2)CC1 (10 µM) | 1

Row | SMILES | number of time points
17 | NCc1ccc(Nc2ncc(F)c(Nc3ccccc3)n2)cc1 (10 µM) | 0
18 | COC1(c2sc3c(N4CCOCC4)nc(-c4cnc(N)nc4)nc3c2C)COC1 (2.5 µM) | 0
19 | COc1cc2c[n+](C)c3c4cc5c(cc4ccc3c2cc1OC)OCO5 [Nitidine (chloride)] (2 µM) | 0
20 | N#Cc1ccc2ncnc(NC3CCC(N4CCOCC4)CC3)c2c1 (stereo unspecified) (10 µM) | 0
21 | COc1ccc2c(c1O)OC(C)(C)c1c-2ccc2c1C(=O)N(c1ccc(C(=O)c3ccccc3)cc1)C2=O [Ampkinone] (10 µM) | 0
22 | CC1=C2C(=O)O[C@@H](c3ccoc3)[C@]2(C)CCC1 [Fraxinellone] (10 µM) | 0
23 | CS(=O)(=O)c1ccc(-c2cnc(N)c(C(=O)Nc3ccccc3)n2)cc1 (10 µM) | 0
24 | O=C(NC(NC(=S)Nc1ccc(F)c([N+](=O)[O-])c1)C(Cl)(Cl)Cl)C(c1ccccc1)c1ccccc1 (stereo unspecified) (10 µM) | 0
25 | COc1cc(C(N)=O)nc(-c2cccc(C#C[C@]3(O)CCN(C)C3=O)c2)c1 (10 µM) | 0
26 | O=C(Nc1cc(Oc2cc(F)c(NC(=O)C3(C(=O)Nc4ccc(F)cc4)CC3)cc2F)ccn1)C1CC1 [Altiratinib] (10 µM) | 0
27 | COc1ccc(Cl)cc1NC(=O)Nc1cc(C)nc2ccccc12 (2.5 µM) | 0
28 | COc1ccc(CC(=O)Nc2nc3c(s2)CCc2ccccc2-3)cc1OC (10 µM) | 0
29 | N[C@H](Cc1c[nH]c2ccccc12)C(=O)N/N=C/c1ccc2nccnc2c1 [Rhosin (hydrochloride)] (10 µM) | 0
30 | CC(C)(C)c1ccc(S(=O)(=O)Nc2ccc(-n3ccnc3)cc2)cc1 (10 µM) | 0
31 | Cc1ccc(-c2c(C(=O)CF)n(CCCO)c3ncnc(N)c23)cc1 (10 µM) | 0

Ordered by count of non-hydrogen atoms (ascending): three of the compounds above.
Row | SMILES | number of time points
20 | N#Cc1ccc2ncnc(NC3CCC(N4CCOCC4)CC3)c2c1 (stereo unspecified) (10 µM) | 0
23 | CS(=O)(=O)c1ccc(-c2cnc(N)c(C(=O)Nc3ccccc3)n2)cc1 (10 µM) | 0
26 | O=C(Nc1cc(Oc2cc(F)c(NC(=O)C3(C(=O)Nc4ccc(F)cc4)CC3)cc2F)ccn1)C1CC1 [Altiratinib] (10 µM) | 0
